Experimental data from the M2OR odorant receptor database.
Only a part is listed here, and it is no random draw. Calls are pooled over several reports, among them a noisy single-well screen. The list shows a part of the results.

Chains of the proteins cited; added tags and fusions are not shown. Chains listed by the source or under a name are the forms on record and can include a tag or linker.
OR9G1, as listed by the source: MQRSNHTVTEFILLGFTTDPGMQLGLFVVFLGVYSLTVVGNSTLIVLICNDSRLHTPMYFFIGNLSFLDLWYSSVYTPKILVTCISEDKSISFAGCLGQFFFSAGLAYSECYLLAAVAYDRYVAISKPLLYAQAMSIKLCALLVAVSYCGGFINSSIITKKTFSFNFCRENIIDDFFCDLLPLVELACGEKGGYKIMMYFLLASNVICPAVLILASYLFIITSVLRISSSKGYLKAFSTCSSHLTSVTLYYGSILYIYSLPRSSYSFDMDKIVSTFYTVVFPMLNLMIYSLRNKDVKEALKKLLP
OR9G9, as listed by the source: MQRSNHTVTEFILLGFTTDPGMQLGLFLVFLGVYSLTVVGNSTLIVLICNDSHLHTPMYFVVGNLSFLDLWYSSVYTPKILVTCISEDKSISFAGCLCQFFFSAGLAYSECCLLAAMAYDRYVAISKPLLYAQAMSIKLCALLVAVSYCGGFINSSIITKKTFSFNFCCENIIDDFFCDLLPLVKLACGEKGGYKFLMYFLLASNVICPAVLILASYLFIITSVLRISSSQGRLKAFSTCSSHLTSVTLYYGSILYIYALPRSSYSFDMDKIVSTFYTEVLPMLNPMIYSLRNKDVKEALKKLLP

Experiments:
Conditions in all cases: stereoisomer not certain
OR8U9 = system: T1, OR8U9
T1 sequence (whole entry): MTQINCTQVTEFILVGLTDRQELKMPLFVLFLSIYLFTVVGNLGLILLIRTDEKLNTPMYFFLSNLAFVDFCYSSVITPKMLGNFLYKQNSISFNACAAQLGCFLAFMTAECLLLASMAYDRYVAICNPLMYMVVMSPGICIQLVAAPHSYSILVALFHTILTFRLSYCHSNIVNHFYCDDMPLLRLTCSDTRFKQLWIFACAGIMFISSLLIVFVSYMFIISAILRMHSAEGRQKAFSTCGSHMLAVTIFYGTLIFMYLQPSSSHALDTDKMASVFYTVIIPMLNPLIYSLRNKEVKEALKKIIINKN
Outline: (§1)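 Assay methods differ from source to source, frequently being transient luciferase assays in mammalian cell lines. For each receptor–molecule pair, the label responsive (active) applies when the original authors judged the measured signal statistically different from baseline, and non-responsive (inactive) applies otherwise.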

OR9A2 = system: T2, OR9A2
T2 sequence (whole entry): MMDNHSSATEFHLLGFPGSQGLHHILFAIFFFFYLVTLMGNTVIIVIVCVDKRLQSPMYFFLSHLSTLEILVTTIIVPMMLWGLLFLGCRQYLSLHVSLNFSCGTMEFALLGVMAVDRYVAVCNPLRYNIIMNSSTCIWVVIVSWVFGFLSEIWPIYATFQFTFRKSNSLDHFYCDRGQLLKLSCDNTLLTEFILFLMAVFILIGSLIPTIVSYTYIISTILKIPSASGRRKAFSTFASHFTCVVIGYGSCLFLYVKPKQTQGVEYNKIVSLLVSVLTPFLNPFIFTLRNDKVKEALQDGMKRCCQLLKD
Outline: as §1

OR9A4 (Homo sapiens) = target: T3, OR9A4 (Homo sapiens) (UniProt Q8NGU2)
T3 sequence (whole entry): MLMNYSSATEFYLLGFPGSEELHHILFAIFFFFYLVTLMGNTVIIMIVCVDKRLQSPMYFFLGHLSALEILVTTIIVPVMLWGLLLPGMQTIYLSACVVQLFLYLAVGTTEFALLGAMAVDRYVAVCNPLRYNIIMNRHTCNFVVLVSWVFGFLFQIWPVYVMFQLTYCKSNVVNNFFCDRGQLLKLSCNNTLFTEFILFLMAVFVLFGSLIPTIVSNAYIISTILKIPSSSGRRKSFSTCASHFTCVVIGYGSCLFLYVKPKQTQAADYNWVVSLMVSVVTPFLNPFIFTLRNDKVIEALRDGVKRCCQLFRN
Outline: as §1

OR9G4 = system: T4, OR9G4
T4 sequence (whole entry): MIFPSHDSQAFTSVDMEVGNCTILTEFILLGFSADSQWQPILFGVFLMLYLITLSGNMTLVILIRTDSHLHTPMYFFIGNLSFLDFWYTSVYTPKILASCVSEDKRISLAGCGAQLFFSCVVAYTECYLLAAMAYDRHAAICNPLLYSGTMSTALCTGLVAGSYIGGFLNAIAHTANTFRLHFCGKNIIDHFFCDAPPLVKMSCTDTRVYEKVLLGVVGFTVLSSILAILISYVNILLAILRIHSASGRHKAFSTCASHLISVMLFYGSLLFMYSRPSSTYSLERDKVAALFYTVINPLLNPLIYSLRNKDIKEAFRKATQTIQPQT
Outline: as §1

OR9G9 [1] = system: T5, OR9G9
T5 sequence (whole entry): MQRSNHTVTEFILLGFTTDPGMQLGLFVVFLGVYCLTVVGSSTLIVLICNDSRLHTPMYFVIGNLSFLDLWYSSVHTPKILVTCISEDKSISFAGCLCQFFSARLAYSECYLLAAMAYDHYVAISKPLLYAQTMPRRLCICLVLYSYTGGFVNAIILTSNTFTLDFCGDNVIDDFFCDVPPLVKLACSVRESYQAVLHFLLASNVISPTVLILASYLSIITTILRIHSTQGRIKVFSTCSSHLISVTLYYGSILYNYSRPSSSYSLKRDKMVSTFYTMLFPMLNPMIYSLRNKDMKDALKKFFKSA
Outline: as §1

OR9G9 [2] = system: T6, OR9G9; remark: listed apart in the source
T6 sequence (whole entry): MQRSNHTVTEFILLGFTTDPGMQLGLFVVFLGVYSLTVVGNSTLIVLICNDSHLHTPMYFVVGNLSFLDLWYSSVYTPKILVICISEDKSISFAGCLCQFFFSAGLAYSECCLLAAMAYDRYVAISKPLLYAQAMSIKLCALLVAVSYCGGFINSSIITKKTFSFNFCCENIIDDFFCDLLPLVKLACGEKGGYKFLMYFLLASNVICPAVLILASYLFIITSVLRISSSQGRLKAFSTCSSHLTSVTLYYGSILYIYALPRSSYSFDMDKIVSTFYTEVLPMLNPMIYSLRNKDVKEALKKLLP
Outline: as §1

OR9I1 (Homo sapiens) = target: T7, OR9I1 (Homo sapiens) (UniProt Q8NGQ6)
T7 sequence (whole entry): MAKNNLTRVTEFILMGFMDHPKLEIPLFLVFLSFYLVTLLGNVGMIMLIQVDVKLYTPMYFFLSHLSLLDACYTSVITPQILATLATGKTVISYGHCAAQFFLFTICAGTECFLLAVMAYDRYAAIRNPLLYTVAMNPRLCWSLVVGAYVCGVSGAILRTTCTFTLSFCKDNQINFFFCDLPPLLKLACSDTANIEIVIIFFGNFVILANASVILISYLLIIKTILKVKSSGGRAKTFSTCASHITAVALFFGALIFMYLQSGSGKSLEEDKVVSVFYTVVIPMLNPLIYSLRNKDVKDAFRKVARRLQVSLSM
Outline: as §1

OR9K2 (Homo sapiens) = target: T8, OR9K2 (Homo sapiens) (UniProt Q8NGE7)
T8 sequence (whole entry): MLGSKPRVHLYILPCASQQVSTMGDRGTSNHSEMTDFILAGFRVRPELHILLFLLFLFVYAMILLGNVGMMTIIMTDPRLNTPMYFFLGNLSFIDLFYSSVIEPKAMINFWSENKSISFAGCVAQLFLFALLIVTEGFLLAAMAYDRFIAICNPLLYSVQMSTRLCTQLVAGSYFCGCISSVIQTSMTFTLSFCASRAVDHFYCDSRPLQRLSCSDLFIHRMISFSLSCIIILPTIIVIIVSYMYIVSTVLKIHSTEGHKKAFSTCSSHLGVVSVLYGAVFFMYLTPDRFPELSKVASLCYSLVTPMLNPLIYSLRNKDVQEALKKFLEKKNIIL
Outline: as §1

OR9Q1 = system: T9, OR9Q1
T9 sequence (whole entry): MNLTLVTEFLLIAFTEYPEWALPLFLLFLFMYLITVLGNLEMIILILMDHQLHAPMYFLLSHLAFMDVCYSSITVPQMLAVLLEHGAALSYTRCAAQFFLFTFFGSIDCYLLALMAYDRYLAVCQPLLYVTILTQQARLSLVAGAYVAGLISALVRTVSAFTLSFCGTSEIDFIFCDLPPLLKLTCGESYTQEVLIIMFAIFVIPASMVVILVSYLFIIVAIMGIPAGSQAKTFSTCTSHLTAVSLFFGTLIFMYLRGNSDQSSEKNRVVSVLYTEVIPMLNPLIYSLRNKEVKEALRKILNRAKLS
Outline: as §1

OR9Q2 (Homo sapiens) = target: T10, OR9Q2 (Homo sapiens) (UniProt Q8NGE9)
T10 sequence (whole entry): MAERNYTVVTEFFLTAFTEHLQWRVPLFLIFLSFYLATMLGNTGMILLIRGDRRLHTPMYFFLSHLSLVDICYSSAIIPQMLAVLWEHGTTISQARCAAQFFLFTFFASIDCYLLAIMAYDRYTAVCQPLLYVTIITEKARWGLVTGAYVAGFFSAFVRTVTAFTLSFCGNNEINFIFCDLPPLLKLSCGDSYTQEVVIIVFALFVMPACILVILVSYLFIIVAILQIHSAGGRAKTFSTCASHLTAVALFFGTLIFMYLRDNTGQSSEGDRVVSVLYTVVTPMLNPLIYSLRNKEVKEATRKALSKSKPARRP
Outline: as §1

OR9G1 [3] = system: OR9G1
Outline: as §1

OR9G1 [4] = system: OR9G1; remark: listed apart in the source
Outline: as §1

OR9G1 [5] = system: OR9G1; remark: listed apart in the source
Outline: as §1

OR9G1 [6] = system: OR9G1; remark: listed apart in the source
Outline: as §1

OR9G9 [7] = system: OR9G9; remark: listed apart in the source
Outline: as §1

| Compound | odorant receptor agonist call (OR8U9) | odorant receptor agonist call (OR9A2) | odorant receptor agonist call (OR9A4 (Homo sapiens)) | odorant receptor agonist call (OR9G4) | odorant receptor agonist call (OR9G9 [1]) | odorant receptor agonist call (OR9G9 [2]) | odorant receptor agonist call (OR9I1 (Homo sapiens)) | odorant receptor agonist call (OR9K2 (Homo sapiens)) | odorant receptor agonist call (OR9Q1) | odorant receptor agonist call (OR9Q2 (Homo sapiens)) | odorant receptor agonist call (OR9G1 [3]) | odorant receptor agonist call (OR9G1 [4]) | odorant receptor agonist call (OR9G1 [5]) | odorant receptor agonist call (OR9G1 [6]) | odorant receptor agonist call (OR9G9 [7]) |
| --- | --- | --- | --- | --- | --- | --- | --- | --- | --- | --- | --- | --- | --- | --- | --- |
| CCCC(=O)O | inactive | inactive | inactive | inactive | inactive | inactive | inactive | inactive | inactive | inactive | – | – | – | – | – |
| C=CC(C)(O)CCC=C(C)C (stereo not given) | inactive | inactive | inactive | inactive | inactive | inactive | inactive | inactive | inactive | inactive | – | – | – | – | – |
| CC1CCC(C(C)C)C(O)C1 (stereo not given) | inactive | inactive | inactive | inactive | inactive | inactive | inactive | inactive | inactive | active | – | – | – | – | – |
| C=CCc1ccc(OC(C)=O)c(OC)c1 | inactive | inactive | inactive | inactive | inactive | inactive | inactive | inactive | active | inactive | inactive | inactive | inactive | inactive | active |
| O=C1CCCCCCCCCCCCCCO1 | inactive | inactive | inactive | inactive | inactive | inactive | inactive | inactive | inactive | inactive | – | – | – | – | – |
| COc1cc(C)ccc1O | inactive | inactive | inactive | inactive | inactive | inactive | inactive | inactive | inactive | inactive | – | – | – | – | – |
| CCCCCCCCCC=O | inactive | inactive | inactive | inactive | inactive | inactive | inactive | inactive | inactive | inactive | – | – | – | – | – |
| CC12CCC(CC1)C(C)(C)O2 | inactive | inactive | inactive | inactive | inactive | inactive | inactive | inactive | inactive | inactive | – | – | – | – | – |
| CC(=O)OCC=C(C)CCC=C(C)C | inactive | inactive | active | inactive | inactive | inactive | inactive | inactive | inactive | inactive | – | – | – | – | – |
| CC(=O)C(C)=O | inactive | inactive | inactive | inactive | inactive | inactive | inactive | inactive | inactive | inactive | – | – | – | – | – |
| CCCCO | inactive | inactive | inactive | inactive | inactive | inactive | inactive | inactive | inactive | inactive | – | – | – | – | – |
| C=CCSCC=C | inactive | inactive | inactive | inactive | inactive | inactive | inactive | inactive | inactive | inactive | – | – | – | – | – |
